Experiment: odour description

Row | Structure (SMILES) | Odour description
1 | CCOC(=O)C(=CCCc1ccc(CC(C)C)cc1C)C(C)=O [Example 1, Ethyl 2-acetyl-5-(4-isobutyl-2-methylphenyl)pent-2-enoate] | floral green fatty muguet cyclamen, fatty buttery, green aldehydic, privet
2 | COc1ccc(C=CCCc2ccc(CC(C)C)cc2C)cc1 [Example 2, 4-Isobutyl-1-(4-(4-methoxyphenyl)but-3-en-1-yl)-2-methylbenzene] | floral muguet, green fatty cyclamen, floral fruity mimosa
